One assay deals with HA-LATS1 (UniProt O95835). Briefly: co-IP; HA-IP (anti-HA antibody, protein A/G PLUS-Agarose, 4 °C) from lysates of transfected HEK293 cells; lysis buffer 50 mM Tris pH 7.4, 150 mM NaCl, 1% Triton X-100; Western blot. For orientation: In western blotting, separated proteins are transferred to a membrane and probed.
The next assay addresses HA-Merlin (UniProt P35240). The description is as above.

The chains behind the UniProt entries cited, without tags or fusion partners.
UniProt O95835: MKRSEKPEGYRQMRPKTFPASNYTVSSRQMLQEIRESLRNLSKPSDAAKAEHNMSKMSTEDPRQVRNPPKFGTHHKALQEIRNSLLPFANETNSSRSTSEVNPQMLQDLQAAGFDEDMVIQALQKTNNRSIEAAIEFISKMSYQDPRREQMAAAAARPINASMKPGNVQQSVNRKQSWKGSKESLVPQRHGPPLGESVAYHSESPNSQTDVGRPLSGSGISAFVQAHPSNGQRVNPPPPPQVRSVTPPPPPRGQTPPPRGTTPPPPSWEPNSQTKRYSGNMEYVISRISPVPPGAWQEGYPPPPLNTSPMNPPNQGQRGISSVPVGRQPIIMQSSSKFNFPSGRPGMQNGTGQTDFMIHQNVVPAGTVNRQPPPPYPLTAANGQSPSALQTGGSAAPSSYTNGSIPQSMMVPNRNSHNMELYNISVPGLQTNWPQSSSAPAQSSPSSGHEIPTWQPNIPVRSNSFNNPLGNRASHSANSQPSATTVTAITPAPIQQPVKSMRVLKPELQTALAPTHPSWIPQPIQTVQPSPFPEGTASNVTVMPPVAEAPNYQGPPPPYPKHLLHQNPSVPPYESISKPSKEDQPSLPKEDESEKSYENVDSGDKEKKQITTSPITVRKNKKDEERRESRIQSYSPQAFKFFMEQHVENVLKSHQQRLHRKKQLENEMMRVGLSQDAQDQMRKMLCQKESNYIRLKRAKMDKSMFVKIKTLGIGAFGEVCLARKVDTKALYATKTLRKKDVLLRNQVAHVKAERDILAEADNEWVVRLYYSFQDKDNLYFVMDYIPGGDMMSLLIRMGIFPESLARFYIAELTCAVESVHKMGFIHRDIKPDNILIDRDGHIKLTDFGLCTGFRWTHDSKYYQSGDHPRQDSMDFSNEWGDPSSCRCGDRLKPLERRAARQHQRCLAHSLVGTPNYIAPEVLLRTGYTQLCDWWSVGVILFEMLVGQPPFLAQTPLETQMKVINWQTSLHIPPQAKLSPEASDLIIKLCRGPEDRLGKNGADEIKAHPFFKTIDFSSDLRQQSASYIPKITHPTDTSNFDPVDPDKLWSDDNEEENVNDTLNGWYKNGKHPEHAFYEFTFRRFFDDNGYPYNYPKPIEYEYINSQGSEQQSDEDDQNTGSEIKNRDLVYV
UniProt P35240: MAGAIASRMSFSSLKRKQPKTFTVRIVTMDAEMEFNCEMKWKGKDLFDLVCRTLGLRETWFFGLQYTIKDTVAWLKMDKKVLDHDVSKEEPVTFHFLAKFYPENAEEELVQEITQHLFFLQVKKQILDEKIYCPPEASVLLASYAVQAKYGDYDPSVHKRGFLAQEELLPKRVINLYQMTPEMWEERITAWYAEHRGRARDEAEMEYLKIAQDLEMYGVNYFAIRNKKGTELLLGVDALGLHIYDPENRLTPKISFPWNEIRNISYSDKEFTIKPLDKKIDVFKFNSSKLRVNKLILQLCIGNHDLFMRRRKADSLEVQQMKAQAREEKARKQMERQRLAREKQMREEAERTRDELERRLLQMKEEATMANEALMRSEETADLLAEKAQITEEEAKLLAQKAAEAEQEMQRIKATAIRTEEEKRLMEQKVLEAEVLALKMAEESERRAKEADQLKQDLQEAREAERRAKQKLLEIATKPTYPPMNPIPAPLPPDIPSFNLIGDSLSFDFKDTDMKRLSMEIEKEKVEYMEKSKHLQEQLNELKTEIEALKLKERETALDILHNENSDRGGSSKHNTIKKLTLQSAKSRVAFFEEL

Results are given in words; binding and its absence hold for the method and conditions named. Binding seen in cells or lysates may run through a third protein. A result given as binding can be weak or reduced; the word gives no strength.

In paper PMC10572892 one finds binding data, which are given here for one substance.

Consider “Myc-PIP5Kγ87 (from UniProt O60331-4) (enzyme)”, for which the binding result with HA-LATS1 and in the assay with HA-Merlin was “binds” each time.
